The values below come from PubChem BioAssay AID1645886 (National Center for Advancing Translational Sciences (NCATS), 2021).

Protein sequences, listed by entry. Tags and fused reporters are not part of them. Lines headed by an entry give the natural chain unless they say otherwise; changes in a name come on top.
UniProt Q8WZA2: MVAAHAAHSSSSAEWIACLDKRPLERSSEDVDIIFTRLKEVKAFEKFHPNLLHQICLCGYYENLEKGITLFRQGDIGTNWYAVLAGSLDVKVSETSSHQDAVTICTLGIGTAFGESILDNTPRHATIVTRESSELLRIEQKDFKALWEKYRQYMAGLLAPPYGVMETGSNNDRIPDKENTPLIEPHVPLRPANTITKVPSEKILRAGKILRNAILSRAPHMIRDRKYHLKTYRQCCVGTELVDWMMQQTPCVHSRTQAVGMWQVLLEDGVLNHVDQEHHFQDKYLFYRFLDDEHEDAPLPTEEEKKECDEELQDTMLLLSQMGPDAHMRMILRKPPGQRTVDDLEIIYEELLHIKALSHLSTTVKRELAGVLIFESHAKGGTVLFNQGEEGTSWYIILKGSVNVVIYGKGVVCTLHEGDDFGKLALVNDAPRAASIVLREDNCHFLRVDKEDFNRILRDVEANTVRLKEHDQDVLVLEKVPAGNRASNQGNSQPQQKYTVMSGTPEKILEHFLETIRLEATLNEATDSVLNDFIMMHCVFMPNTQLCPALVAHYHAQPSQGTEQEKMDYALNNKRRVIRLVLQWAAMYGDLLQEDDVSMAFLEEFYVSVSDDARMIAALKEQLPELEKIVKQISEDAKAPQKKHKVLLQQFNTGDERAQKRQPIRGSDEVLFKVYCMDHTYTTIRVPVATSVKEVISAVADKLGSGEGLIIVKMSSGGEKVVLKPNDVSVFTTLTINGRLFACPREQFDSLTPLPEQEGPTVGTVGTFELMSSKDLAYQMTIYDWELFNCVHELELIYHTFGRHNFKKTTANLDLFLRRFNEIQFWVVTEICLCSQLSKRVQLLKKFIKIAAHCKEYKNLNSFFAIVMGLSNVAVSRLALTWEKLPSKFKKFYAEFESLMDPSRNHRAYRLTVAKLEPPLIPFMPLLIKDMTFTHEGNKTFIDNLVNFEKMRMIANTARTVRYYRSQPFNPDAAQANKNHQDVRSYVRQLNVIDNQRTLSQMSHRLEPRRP

Values joined by “and” are separate entries in the source; they are usually repeats but may differ in a detail not shown here. Identical values can stand only once. What follows is the remainder of the data, with few or none of the hits. Inconclusive results are not listed. Active and inactive are the calls of the source. Calls follow the shape of the dose curve; as a rule, active = well fitted inhibition curve with a large enough effect; inconclusive = small, poorly fitted or top-dose-only effect; inactive = no such curve, though single readings can be large or run the other way.

In this assay the target is Rap guanine nucleotide exchange factor 4 (Homo sapiens) (UniProt Q8WZA2). Description: Validation qHTS for antagonist of cAMP-regulated guanine nucleotide exchange factor 4 (EPAC2). Also: nearly all actives have a fitted effect of over 40% in size. The note with it: EPAC2 Rap1B BODIPY-GDP exchange, fluorescence. The source says:
Principle Investigator: Xiaodong Cheng Ph.D. The University of Texas Medical Branch, […], TX MLPCN Grant: NS066510 In multi-cellular eukaryotic organisms, the effects of cAMP are transduced by two ubiquitously-expressed intracellular cAMP receptors, the classic protein kinase A/cAMP-dependent protein kinase (PKA/cAPK) and the more recently discovered exchange protein directly activated by cAMP/cAMP-regulated guanine nucleotide exchange factor (EPAC/cAMP-GEF). Both PKA and EPAC are ubiquitously expressed in all tissues, and an increase in intracellular cAMP levels will lead to the activation of both PKA and EPAC. Therefore, careful dissections of the individual role and relative contribution of EPAC and PKA within the overall cAMP signaling in various model systems are critical for further elucidating the mechanism of cAMP signaling. To date no EPAC-specific antagonists and agonist, as well as isoform-specific agonists have been reported, and developing EPAC-specific pharmacological probes to determine the physiological functions that EPAC play in the overall cAMP-mediated signaling remains a major challenge within the research field. […] This qHTS will be used to screen the Molecular Libraries Small Molecule Repository (MLSMR) as a concentration-titration series using the NCGC unique quantitative screening (qHTS) platform to find activators for EPAC1. […] Activators are identified by monitoring the change in fluorescence signal as the exchanged free BODIPY-GDP has a reduced fluorescence compared to Rap1-bound BODIPY-GDP. […]
Briefly, three uL of reagents (100 nM EPAC2, 250 nM RAP1B-BODIPY-GDP, 50 uM GDP) were dispensed into a 1536-well Greiner black solid-bottom medium binding assay plate. […] The assay plates were read at 5 minute intervals for 30 minutes in the ViewLux plate reader using 480nm excitation and 540nm emission filters. […]
(In qHTS, concentration-response curves come from the screen itself.)

Turning to `Cc1cccc(CCN2CCC(C(=O)c3ccc(NS(C)(=O)=O)cc3)CC2)n1`, the activity, negative = inhibition is, setting by setting: (at 112 µM (top of the series)) inactive: -16.3% and inactive: -18.9%; (at 151 µM (top of the series)) inactive: -6.06%.

As for `Nc1ccc(N)c([N+](=O)[O-])c1`, the activity, negative = inhibition (at 239 µM (top of the series)) was inactive: -18.2%.
